# Values from PubChem BioAssay AID1508597 (Cure First, 2020)
# Screen: 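Knock-downs altering ovarian cancer cell survival with or without PARP inhibitor rucaparib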 (primary screen)
# Cell system: human ovarian carcinoma lines grown from tumours: OCI-P5x (papillary serous) and OCI-C5x (clear cell)
# Reagent: siRNA pool against human genes, 1.25 pmol siRNA per well
# Time to read-out: 72 h or 96 h, depending on the cell culture
# Conditions: rucaparib 20 µM (about IC30) or vehicle, present until read-out
# Rucaparib or vehicle: Rucaparib
# Cell line: OCI-P5x (serous)
# Measurement: 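Luminescent ATP-based viability assay read 72 or 96 h after transfection, depending on culture, given as normalised percent viability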
# Reading the numbers: viability, normalised: higher = more viable cells remaining
# Rule for the call: 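a well counts as a hit if its normalised viability is under 80 percent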
# Meaning of the calls: active = viability under 80%; inactive = viability 80% or more
# Shown is a random part of the about 2,100 reagents, in one setting of the screen. 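Calls flag viability under 80% in either arm, not effects specific to rucaparib; the reference for percent is not stated.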 A number with no mark means an inactive call. A reagent listed more than once was tested more than once; the source does not tell the runs apart. Not given: the 100% reference.
target gene,technical replicate,"viability, normalised (%)"
MAPK1,1,76.2 (active)
MAPK1,2,74.8 (active)
MAPK1,3,61.8 (active)
MED30,1,44.3 (active)
MED30,2,50.7 (active)
MED30,3,53.5 (active)
IGF1R,1,73.2 (active)
IGF1R,2,64.7 (active)
IGF1R,3,68.3 (active)
STK3,1,52.3 (active)
STK3,2,65.6 (active)
STK3,3,53.2 (active)
DDX10,1,47.6 (active)
DDX10,2,45.2 (active)
DDX10,3,62.6 (active)
HAT1,1,56.7 (active)
HAT1,2,59.7 (active)
HAT1,3,77.6 (active)
PPM1D,1,96.1
PPM1D,2,111
PPM1D,3,102
SMN2,1,42.7 (active)
SMN2,2,41.4 (active)
SMN2,3,42.5 (active)
BRPF1,1,85.4
BRPF1,2,87.5
BRPF1,3,93.3

5 neighbouring entries from above, for reference:
target gene,technical replicate,"viability, normalised (%)"
IGF1R,3,68.3 (active)
STK3,1,52.3 (active)
STK3,2,65.6 (active)
STK3,3,53.2 (active)
DDX10,1,47.6 (active)

Next results follow:
target gene,technical replicate,"viability, normalised (%)"
CAMK2G,1,83.3
CAMK2G,1,49.5 (active)
CAMK2G,2,58.3 (active)
CAMK2G,2,82.8
CAMK2G,3,65.1 (active)
CAMK2G,3,90.6
TWF2,1,96.7
TWF2,2,98.9
TWF2,3,72.7 (active)
RAD21,1,55.3 (active)
RAD21,1,68.2 (active)
RAD21,2,55.5 (active)
RAD21,2,48.8 (active)
RAD21,3,86.4
RAD21,3,80.5
